For some of these results: Expression values are those of the mRNA of the gene that encodes the peptide; a gene is named only where it was looked up.
How the values were obtained:
Design in all cases: species or system human
[1] = tested on: HLA-A*24 molecules of primary tumors; test: Identification and relative LC-MS quantitation of HLA-A*24 tumor-associated peptides presented on tissue samples (XPRESIDENT presentation profiles); settings: for ENTITIES: Table 9A: selected HLA-A*24-binding tumor-associated peptides, cancer entities on which the peptide was found presented; for Peptide Presentation on cancer entities: Table 9B: selected HLA-A*24 peptides, presentation on additional cancer entities
[2] = tested on: source genes of selected peptides; test: Target coverage of source genes in tumor entities based on TCGA Research Network data; settings: over-expressed = more than 2-fold above the highest 75% percentile of normal organs; for Target coverage, over-expression category of source gene, BLCA (N = 408): Bladder urothelial carcinoma; for Target coverage, over-expression category of source gene, CESC (N = 307): Cervical squamous cell carcinoma and endocervical adenocarcinoma; for Target coverage, over-expression category of source gene, CHOL (N = 36): Cholangiocarcinoma; for Target coverage, over-expression category of source gene, HNSC (N = 521): Head and neck squamous cell carcinoma; for Target coverage, over-expression category of source gene, DLBC (N = 48): Lymphoid neoplasm diffuse large B-cell lymphoma; for Target coverage, over-expression category of source gene, MESO (N = 87): Mesothelioma
[3] = tested on: source genes of selected peptides; test: Expression profiling of source genes by in-house RNAseq, tumor vs normal tissues (target coverage); settings: for Target coverage, over-expression of source gene, AML: AML (N = 7); for Target coverage, over-expression of source gene, AML / Target coverage, over-expression of source gene, BRCA / Target coverage, over-expression of source gene, CLL / Target coverage, over-expression of source gene, CRC / Target coverage, over-expression of source gene, GB / Target coverage, over-expression of source gene, HCC / Target coverage, over-expression of source gene, OC / Target coverage, over-expression of source gene, OSCAR / Target coverage, over-expression of source gene, PC / Target coverage, over-expression of source gene, RCC / Target coverage, over-expression of source gene, SCLC / Target coverage, over-expression of source gene, pNSCLC: share of tumors with more than 1.5-fold higher expression than highest relevant normal tissue, in-house RNASeq; for Target coverage, over-expression of source gene, BRCA: BRCA (N = 10); for Target coverage, over-expression of source gene, CLL: CLL (N = 10); for Target coverage, over-expression of source gene, CRC: CRC (N = 20); for Target coverage, over-expression of source gene, GB: GB (N = 24); for Target coverage, over-expression of source gene, HCC: HCC (N = 15); for Target coverage, over-expression of source gene, OC: OC (N = 12); for Target coverage, over-expression of source gene, OSCAR: OSCAR (N = 11); for Target coverage, over-expression of source gene, PC: PC (N = 26); for Target coverage, over-expression of source gene, RCC: RCC (N = 10); for Target coverage, over-expression of source gene, SCLC: SCLC (N = 10); for Target coverage for source genes of selected peptides, GBC_CCC (N = 10): gallbladder adenocarcinoma and cholangiocarcinoma; for Target coverage for source genes of selected peptides, GC (N = 11): gastric cancer; for Target coverage for source genes of selected peptides, MEL (N = 10): melanoma; for Target coverage for source genes of selected peptides, NHL (N = 10): non-Hodgkin lymphoma; for Target coverage, over-expression of source gene, pNSCLC: pNSCLC (N = 11); for Target coverage for source genes of selected peptides, PCA (n = 10): prostate cancer and benign prostate hyperplasia; for Target coverage for source genes of selected peptides, UBC (N = 10): urinary bladder cancer; for Target coverage for source genes of selected peptides, UTC (N = 10): uterine cancer
[4] = share of tumors with more than 1.5-fold higher expression than the highest-expressing relevant normal tissue, in-house RNAseq

Substance	ENTITIES [1]	Target coverage, over-expression category of source gene, BLCA (N = 408) [2]	Target coverage, over-expression category of source gene, CESC (N = 307) [2]	Target coverage, over-expression category of source gene, CHOL (N = 36) [2]	Target coverage, over-expression category of source gene, HNSC (N = 521) [2]	Target coverage, over-expression of source gene, AML [3]	Target coverage, over-expression of source gene, BRCA [3]	Target coverage, over-expression of source gene, CLL [3]	Target coverage, over-expression of source gene, CRC [3]	Target coverage, over-expression of source gene, GB [3]	Target coverage, over-expression of source gene, HCC [3]	Target coverage, over-expression of source gene, OC [3]	Target coverage, over-expression of source gene, OSCAR [3]	Target coverage, over-expression of source gene, PC [3]	Target coverage, over-expression of source gene, RCC [3]	Target coverage, over-expression of source gene, SCLC [3]	Target coverage for source genes of selected peptides, GBC_CCC (N = 10) [3, 4]	Target coverage for source genes of selected peptides, GC (N = 11) [3, 4]	Target coverage for source genes of selected peptides, MEL (N = 10) [3, 4]	Target coverage, over-expression of source gene, pNSCLC [3]	also measured
363: peptide found in SLC7A11 (gene looked up) (SYAELGTTI; listed as Homo sapiens) [compound 363]	GB, NSCLC, GC	C (>=5% of tumors above the cutoff, but <20%)	C (>=5% of tumors above the cutoff, but <20%)	C (>=5% of tumors above the cutoff, but <20%)	C (>=5% of tumors above the cutoff, but <20%)	I (<19% over-expression = I)	I (<19% over-expression = I)	I (<19% over-expression = I)	I (<19% over-expression = I)	II (20-49% = II)	I (<19% over-expression = I)	I (<19% over-expression = I)	II (20-49% = II)	I (<19% over-expression = I)	I (<19% over-expression = I)	I (<19% over-expression = I)	I (<19% over-expression = I)	I (<19% over-expression = I)	I (<19% over-expression = I)	I (<19% over-expression = I)	Target coverage, over-expression category of source gene, LGG (N = 534) ([2]; Lower grade glioma): B (>=20% of tumors above the cutoff, but <50%); Target coverage for source genes of selected peptides, HNSCC (N = 10) ([3]; head and neck small cell carcinoma, share of tumors with more than 1.5-fold higher expression than the highest-expressing relevant normal tissue, in-house RNAseq): I (<19% over-expression = I); Target coverage for source genes of selected peptides, NHL (N = 10) [3, 4]: I (<19% over-expression = I); Target coverage for source genes of selected peptides, PCA (n = 10) [3, 4]: I (<19% over-expression = I); Target coverage for source genes of selected peptides, UBC (N = 10) [3, 4]: I (<19% over-expression = I); Target coverage for source genes of selected peptides, UTC (N = 10) [3, 4]: I (<19% over-expression = I)
372: peptide found in NUP210 (gene looked up) (VYVIEPHSMEF; listed as Homo sapiens) [compound 372]		B (>=20% of tumors above the cutoff, but <50%)	A (>=50% of tumors above the cutoff)	C (>=5% of tumors above the cutoff, but <20%)	C (>=5% of tumors above the cutoff, but <20%)	I (<19% over-expression = I)	I (<19% over-expression = I)	II (20-49% = II)	I (<19% over-expression = I)	I (<19% over-expression = I)	I (<19% over-expression = I)	I (<19% over-expression = I)	I (<19% over-expression = I)	I (<19% over-expression = I)	I (<19% over-expression = I)	II (20-49% = II)				I (<19% over-expression = I)	Peptide Presentation on cancer entities [1]: NSCLC; Target coverage, over-expression category of source gene, DLBC (N = 48) [2]: A (>=50% of tumors above the cutoff); Target coverage, over-expression category of source gene, MESO (N = 87) [2]: C (>=5% of tumors above the cutoff, but <20%)
374: peptide found in PRKDC (gene looked up) (VFLPRVTEL; listed as Homo sapiens) [compound 374]		C (>=5% of tumors above the cutoff, but <20%)	C (>=5% of tumors above the cutoff, but <20%)		B (>=20% of tumors above the cutoff, but <50%)	I (<19% over-expression = I)	III (50-69% = III)	I (<19% over-expression = I)	II (20-49% = II)	III (50-69% = III)	I (<19% over-expression = I)	III (50-69% = III)	II (20-49% = II)	I (<19% over-expression = I)	I (<19% over-expression = I)	IV (>70% = IV)				III (50-69% = III)	Peptide Presentation on cancer entities [1]: NSCLC
376: peptide found in RAD18 (gene looked up) (VYTPVASRQSL; listed as Homo sapiens) [compound 376]	HCC, NSCLC, GC, GB, PCA	C (>=5% of tumors above the cutoff, but <20%)	C (>=5% of tumors above the cutoff, but <20%)		C (>=5% of tumors above the cutoff, but <20%)	I (<19% over-expression = I)	I (<19% over-expression = I)	I (<19% over-expression = I)	I (<19% over-expression = I)	II (20-49% = II)	I (<19% over-expression = I)	I (<19% over-expression = I)	I (<19% over-expression = I)	I (<19% over-expression = I)	I (<19% over-expression = I)	II (20-49% = II)	II (20-49% = II)	I (<19% over-expression = I)	I (<19% over-expression = I)	I (<19% over-expression = I)	Target coverage, over-expression category of source gene, DLBC (N = 48) [2]: C (>=5% of tumors above the cutoff, but <20%); Target coverage, over-expression category of source gene, MESO (N = 87) [2]: C (>=5% of tumors above the cutoff, but <20%); Target coverage for source genes of selected peptides, NHL (N = 10) [3, 4]: II (20-49% = II); Target coverage for source genes of selected peptides, PCA (n = 10) [3, 4]: I (<19% over-expression = I); Target coverage for source genes of selected peptides, UBC (N = 10) [3, 4]: II (20-49% = II); Target coverage for source genes of selected peptides, UTC (N = 10) [3, 4]: I (<19% over-expression = I)
377: peptide found in RPTOR (gene looked up) (QYTPHSHQF; listed as Homo sapiens) [compound 377]	HCC, NSCLC					I (<19% over-expression = I)	I (<19% over-expression = I)	I (<19% over-expression = I)	I (<19% over-expression = I)	II (20-49% = II)	I (<19% over-expression = I)	I (<19% over-expression = I)	I (<19% over-expression = I)	I (<19% over-expression = I)	I (<19% over-expression = I)	III (50-69% = III)				II (20-49% = II)	Target coverage, over-expression category of source gene, ACC (N = 79) ([2]; Adrenocortical carcinoma): C (>=5% of tumors above the cutoff, but <20%)

Reference: US10159726B2, “Peptides, combination of peptides and scaffolds for use in immunotherapeutic treatment of various cancers” (Immatics Biotechnologies GmbH, priority 2015, dated 2018)
